Assay results published in PMC5861120, “Architecture of the Saccharomyces cerevisiae NuA4/TIP60 complex” (Nature Communications, 2018).

Experiments:
[1] = target: T1, Epl1 used as the handle of tandem affinity purification (S. cerevisiae) (UniProt P43572); experiment: condition: only NuA4 from cells whose Eaf1 is mutated in the SANT domain; affinity purification with mass spectrometry; NuA4 purified by TAP from yeast whose Eaf1 is mutated in the SANT domain; mass spec data in Supplementary Table 2
T1 sequence: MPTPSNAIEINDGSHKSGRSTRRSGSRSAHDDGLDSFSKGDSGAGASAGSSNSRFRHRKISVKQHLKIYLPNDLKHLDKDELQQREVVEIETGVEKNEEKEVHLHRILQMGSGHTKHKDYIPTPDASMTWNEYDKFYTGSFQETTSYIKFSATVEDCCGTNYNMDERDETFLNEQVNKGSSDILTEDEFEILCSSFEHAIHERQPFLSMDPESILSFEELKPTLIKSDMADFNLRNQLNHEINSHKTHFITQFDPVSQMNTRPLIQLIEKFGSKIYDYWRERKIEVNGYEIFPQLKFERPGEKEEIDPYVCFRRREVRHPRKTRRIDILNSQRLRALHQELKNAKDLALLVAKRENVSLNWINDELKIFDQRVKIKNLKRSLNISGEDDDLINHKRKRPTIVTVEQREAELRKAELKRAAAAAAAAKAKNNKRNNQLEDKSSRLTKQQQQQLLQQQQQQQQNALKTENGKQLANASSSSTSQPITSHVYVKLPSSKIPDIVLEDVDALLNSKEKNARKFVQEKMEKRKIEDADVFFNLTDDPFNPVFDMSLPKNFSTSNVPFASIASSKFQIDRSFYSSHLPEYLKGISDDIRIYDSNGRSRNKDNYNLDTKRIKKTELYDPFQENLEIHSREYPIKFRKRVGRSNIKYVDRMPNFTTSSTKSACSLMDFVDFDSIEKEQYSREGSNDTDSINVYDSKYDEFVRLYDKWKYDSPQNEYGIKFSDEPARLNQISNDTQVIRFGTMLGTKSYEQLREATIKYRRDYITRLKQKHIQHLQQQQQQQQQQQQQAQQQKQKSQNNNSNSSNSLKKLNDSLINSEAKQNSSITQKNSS

[2] = target: T1, Epl1 used as the handle of tandem affinity purification (S. cerevisiae); experiment: affinity purification with mass spectrometry; NuA4 purified by TAP from yeast with wild type Eaf1; mass spec data in Supplementary Table 2

binding [1]: no binding
binding [2]: binds
B1: Yap1 transcription factor (protein, UniProt P19880 1-650)
chain: MSVSTAKRSLDVVSPGSLAEFEGSKSRHDEIENEHRRTGTRDGEDSEQPKKKGSKTSKKQDLDPETKQKRTAQNRAAQRAFRERKERKMKELEKKVQSLESIQQQNEVEATFLRDQLITLVNELKKYRPETRNDSKVLEYLARRDPNLHFSKNNVNHSNSEPIDTPNDDIQENVKQKMNFTFQYPLDNDNDNDNSKNVGKQLPSPNDPSHSAPMPINQTQKKLSDATDSSSATLDSLSNSNDVLNNTPNSSTSMDWLDNVIYTNRFVSGDDGSNSKTKNLDSNMFSNDFNFENQFDEQVSEFCSKMNQVCGTRQCPIPKKPISALDKEVFASSSILSSNSPALTNTWESHSNITDNTPANVIATDATKYENSFSGFGRLGFDMSANHYVVNDNSTGSTDSTGSTGNKNKKNNNNSDDVLPFISESPFDMNQVTNFFSPGSTGIGNNAASNTNPSLLQSSKEDIPFINANLAFPDDNSTNIQLQPFSESQSQNKFDYDMFFRDSSKEGNNLFGEFLEDDDDDKKAANMSDDESSLIKNQLINEEPELPKQYLQSVPGNESEISQKNGSSLQNADKINNGNDNDNDNDVVPSKEGSLLRCSEIWDRITTHPKYSDIDVDGLCSELMAKAKCSERGVVINAEDVQLALNKHMN

No constants are given. Whether binding was seen depends on the method and setting. Binding seen in cells or lysates may run through a third protein. These calls come from enrichment with a bait or labelling near it, and not all partners need be listed. For some assays here: A no says only that the protein was not detected with the bait.
